Reference: article PMC12393752
Results are given in words; binding and its absence hold for the method and conditions named. In cells and extracts the contact can be indirect. Some entries that bind do so weakly or less than the wild type. Where a sequence is shown, tags or fusion partners need not be part of it.

By UniProt entry, the sequences of proteins in these tests, tags left out.
UniProt Q9SMV6: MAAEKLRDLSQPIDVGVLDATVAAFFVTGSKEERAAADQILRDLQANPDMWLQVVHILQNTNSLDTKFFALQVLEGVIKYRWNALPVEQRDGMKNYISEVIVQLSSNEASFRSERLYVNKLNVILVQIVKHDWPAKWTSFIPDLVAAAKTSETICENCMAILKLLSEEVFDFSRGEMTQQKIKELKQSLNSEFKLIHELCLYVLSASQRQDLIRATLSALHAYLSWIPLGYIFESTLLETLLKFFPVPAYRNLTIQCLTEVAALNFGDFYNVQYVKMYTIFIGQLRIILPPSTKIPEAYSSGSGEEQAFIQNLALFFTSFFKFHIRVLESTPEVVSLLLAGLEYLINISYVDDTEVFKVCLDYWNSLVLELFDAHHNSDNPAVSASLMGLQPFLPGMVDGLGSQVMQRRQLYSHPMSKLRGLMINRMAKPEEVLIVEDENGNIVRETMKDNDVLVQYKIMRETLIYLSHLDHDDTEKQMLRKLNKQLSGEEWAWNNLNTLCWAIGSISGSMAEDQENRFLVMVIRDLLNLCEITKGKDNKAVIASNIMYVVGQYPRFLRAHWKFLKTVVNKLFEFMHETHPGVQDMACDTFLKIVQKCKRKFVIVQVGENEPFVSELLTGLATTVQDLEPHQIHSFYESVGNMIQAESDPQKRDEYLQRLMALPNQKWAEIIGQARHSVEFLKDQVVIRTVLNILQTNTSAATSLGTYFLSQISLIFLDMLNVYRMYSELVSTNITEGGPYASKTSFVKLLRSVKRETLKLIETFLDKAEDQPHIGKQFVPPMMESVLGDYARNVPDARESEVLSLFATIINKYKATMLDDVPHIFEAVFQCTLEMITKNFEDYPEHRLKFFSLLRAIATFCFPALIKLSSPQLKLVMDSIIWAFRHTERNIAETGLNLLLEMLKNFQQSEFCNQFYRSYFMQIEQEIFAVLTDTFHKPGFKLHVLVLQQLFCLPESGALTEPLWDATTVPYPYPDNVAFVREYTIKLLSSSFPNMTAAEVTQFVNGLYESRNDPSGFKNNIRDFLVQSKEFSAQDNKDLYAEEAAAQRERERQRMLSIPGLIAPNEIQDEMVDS

How the values were obtained:
[1] = biological target: T1, TBSV p33-cYFP replication protein (Tomato bushy stunt virus) (UniProt P15962); experiment: split reporter; BiFC (nYFP and cYFP fusions) in agroinfiltrated N. benthamiana leaves (wild type or H2B-CFP transgenic), with p19, inoculated with TBSV or CIRV sap 12 h later (Nuc-L1 with XPO1 also in plants without virus); confocal microscopy at 2-2.5 dpi; p33 and p36 with XPO1 also in leaves treated with 400 nM LMB or 0.5% EtOH
T1 sequence: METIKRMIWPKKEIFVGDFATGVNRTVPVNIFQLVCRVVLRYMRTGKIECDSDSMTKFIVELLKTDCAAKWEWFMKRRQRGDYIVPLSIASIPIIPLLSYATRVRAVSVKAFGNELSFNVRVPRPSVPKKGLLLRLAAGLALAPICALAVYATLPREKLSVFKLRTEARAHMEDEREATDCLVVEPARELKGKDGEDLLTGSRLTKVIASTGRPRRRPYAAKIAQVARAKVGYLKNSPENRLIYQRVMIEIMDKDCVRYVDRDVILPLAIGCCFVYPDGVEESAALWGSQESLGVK

[2] = biological target: T2, TBSV Flag-p33 replication protein (Tomato bushy stunt virus) (UniProt P15962); experiment: co-IP; Flag-tagged replication proteins and His6-XPO1 co-expressed in yeast; membrane fraction solubilized with detergent; Flag-tagged proteins immobilized on a Flag-column; eluate analysed by western blot
T2 sequence: T1 sequence

Substance	binding [1]	binding [2]
nYFP-XPO1 (exportin-1, XPO1/CRM1) (from UniProt Q9SMV6 1-1075)	binds	
His6-XPO1 (from UniProt Q9SMV6 1-1075)		binds
